These are yes or no findings as the source states them, for the method shown. Some binding calls cover weakened binding; strength is not graded here.
B1: Las17 peptide p1 (PP1 motif) (peptide)
peptide: RNNRPVPPPPPMRTTTEGSGVR
notes: Las17, S. cerevisiae, first PP motif; also called peptide 1; source: synthetic peptide (GenScript Biotech, UK)
B2: Las17 peptide p3 (PP3 motif) (peptide)
peptide: LPAQTGRRGPAPPPPPRASRPTP
notes: Las17, S. cerevisiae, third PP motif; also called peptide 3; source: synthetic peptide (GenScript Biotech, UK)

Biological target: T1, Sla1 SH3#3 (aa 354-413) (S. cerevisiae) (UniProt P32790)
T1 sequence (chain, 15N-labelled (NMR only)): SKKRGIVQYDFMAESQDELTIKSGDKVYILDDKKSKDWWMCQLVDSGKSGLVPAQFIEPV
Assay: NMR titration; 15N-labelled Sla1 SH3 domains, 1H-15N HSQC; concentrated peptide stocks in the same buffer and pH added stepwise (0 to 8 equivalents shown); shift changes fitted to the standard quadratic equation; both purified

Binder | binding
B1 | binds weakly
B2 | binds weakly

Reference: publication PMC12081870 (Communications Biology, 2025)
